Test results from patent US20120157452A1, “1H-PYRAZOLO[3,4-B] PYRIDINE COMPOUNDS FOR INHIBITING RAF KINASE” (GENENTECH, INC., priority 2009, published 2012).
Some entries share one result that the patent states for a list of compounds.

The chains behind the UniProt entries cited, without tags or fusion partners.
UniProt P15056, whole entry V600E: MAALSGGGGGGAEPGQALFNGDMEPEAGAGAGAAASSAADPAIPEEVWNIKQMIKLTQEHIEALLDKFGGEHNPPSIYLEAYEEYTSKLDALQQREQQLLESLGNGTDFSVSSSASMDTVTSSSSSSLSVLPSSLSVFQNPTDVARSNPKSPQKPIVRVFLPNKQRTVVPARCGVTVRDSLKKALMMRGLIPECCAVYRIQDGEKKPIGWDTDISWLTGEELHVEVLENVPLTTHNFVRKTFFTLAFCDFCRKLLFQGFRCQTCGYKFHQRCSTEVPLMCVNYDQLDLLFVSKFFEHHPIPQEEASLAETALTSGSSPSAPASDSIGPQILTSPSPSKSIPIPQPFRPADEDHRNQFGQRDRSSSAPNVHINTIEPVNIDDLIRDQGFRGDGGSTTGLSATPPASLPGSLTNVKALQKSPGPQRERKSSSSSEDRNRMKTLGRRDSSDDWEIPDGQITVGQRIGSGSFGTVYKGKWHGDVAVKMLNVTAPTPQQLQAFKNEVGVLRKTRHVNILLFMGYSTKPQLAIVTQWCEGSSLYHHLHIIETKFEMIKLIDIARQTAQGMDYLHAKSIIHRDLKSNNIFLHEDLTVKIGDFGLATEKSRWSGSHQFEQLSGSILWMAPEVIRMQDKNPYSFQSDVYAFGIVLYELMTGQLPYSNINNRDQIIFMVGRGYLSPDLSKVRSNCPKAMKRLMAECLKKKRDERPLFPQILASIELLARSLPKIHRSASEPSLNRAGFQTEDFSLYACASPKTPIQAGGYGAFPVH

These compounds were tested against T1, V600E full-length B-Raf (Homo sapiens, UniProt P15056, V600E) (assay: B-Raf IC50 assay: incorporation of radio labeled phosphate from [γ-33P]ATP into FSBA-modified wild-type MEK). Conditions: bound stated.
T1 construct: made in house; host or cells: Sf9 insect cells (baculovirus)
Type: biochemical
Text: Determining the activity of Raf in the sample is possible by a number of direct and indirect detection methods (US 2004/0082014). Activity of human recombinant B-Raf protein may be assessed in vitro by assay of the incorporation of radio labeled phosphate to recombinant MAP kinase (MEK), a known physiologic substrate of B-Raf, according to US 2004/0127496 and WO 03/022840. The activity/inhibition of V600E full-length B-Raf was estimated by measuring the incorporation of radio labeled phosphate from [γ-^33]ATP into FSBA-modified wild-type MEK (see Biological Example 1).
Activity of human recombinant B-Raf protein may be assessed in vitro by assay of the incorporation of radio labeled phosphate to recombinant MAP kinase (MEK), a known physiologic substrate of B-Raf, according to US 2004/0127496 and WO 03/022840. Catalytically active human recombinant B-Raf protein is obtained by purification from sf9 insect cells infected with a human B-Raf recombinant baculovirus expression vector.
The activity/inhibition of V600E full-length B-Raf was estimated by measuring the incorporation of radio labeled phosphate from [γ-^33]ATP into FSBA-modified wild-type MEK. The 30-μL, assay mixtures contained 25 mM Na Pipes, pH 7.2, 100 mM KCl, 10 mM MgCl2, 5 mM β-glycerophosphate, 100 μM Na Vanadate, 4 μM ATP, 500 nCi [γ-^33P]ATP, 1 μM FSBA-MEK and 20 nM V600E full-length B-Raf. Incubations were carried out at 22° C. in a Costar 3365 plate (Corning). Prior to the assay, the B-Raf and FSBA-MEK were preincubated together in assay buffer at 1.5× (20 μL of 30 nM and 1.5 μM, respectively) for 15 minutes, and the assay was initiated by the addition of 10 μL of […]. Following the 60-minute incubation, the assay mixtures were quenched by the addition of 100 μL of 25% TCA, the plate was mixed on a rotary shaker for 1 minute, and the product was captured on a Perkin-Elmer GF/B filter plate using a Tomtec Mach III Harvester. After sealing the bottom of the plate, 35 μL of Bio-Safe II (Research Products International) scintillation cocktail were added to each well and the plate was top-sealed and counted in a Topcount NXT (Packard).

Structure (SMILES)	IC50
COc1n[nH]c2ncc(NC(=O)c3c(Cl)ccc(OCc4scnc4C)c3F)cc12 [Example 52, 6-chloro-2-fluoro-N-(3-methoxy-1H-pyrazolo[3,4-b]pyridin-5-yl)-3-((4-methylthiazol-5-yl)methoxy)benzamide]	< 1000 nM
COc1n[nH]c2ncc(NC(=O)c3c(F)cc(F)c(OCc4ccccc4)c3F)cc12 [Example 32, 3-(benzyloxy)-2,4,6-trifluoro-N-(3-methoxy-1H-pyrazolo[3,4-b]pyridin-5-yl)benzamide]	< 1000 nM
COc1n[nH]c2ncc(NC(=O)c3c(Cl)ccc(OCc4ccccc4Cl)c3F)cc12 [Example 60, 6-chloro-3-(2-chlorobenzyloxy)-2-fluoro-N-(3-methoxy-1H-pyrazolo[3,4-b]pyridin-5-yl)benzamide]	< 1000 nM
COc1n[nH]c2ncc(NC(=O)c3c(C)ccc(OCc4ccc(Cl)cn4)c3F)cc12 [Example 74, 3-((5-chloropyridin-2-yl)methoxy)-2-fluoro-N-(3-methoxy-1H-pyrazolo[3,4-b]pyridin-5-yl)-6-methylbenzamide]	< 1000 nM
COc1n[nH]c2ncc(NC(=O)c3cccc(OCc4ccccc4)c3C)cc12 [Example 22, 3-(benzyloxy)-N-(3-methoxy-1H-pyrazolo[3,4-b]yridine-5-yl)-2-methylbenzamide]	< 1000 nM
COc1n[nH]c2ncc(NC(=O)c3cc(OCc4ccccn4)ccc3Cl)cc12 [Example 24, 2-chloro-N-(3-methoxy-1H-pyrazolo[3,4-b]pyridin-5-yl)-5-(pyridin-2-ylmethoxy)benzamide]	< 1000 nM
CN(C)c1n[nH]c2ncc(NC(=O)c3c(Cl)ccc(OCc4ccccc4)c3F)cc12 [Example 7, 3-(benzyloxy)-6-chloro-N-(3-(dimethylamino)-1H-pyrazolo[3,4-b]pyridin-5-yl)-2-fluorobenzamide]	< 1000 nM
COc1n[nH]c2ncc(NC(=O)c3c(Cl)ccc(OCc4ccc(S(C)(=O)=O)cc4)c3F)cc12 [Example 49]	< 1000 nM
COc1n[nH]c2ncc(NC(=O)c3c(Cl)ccc(OCc4ccc(Cl)cc4F)c3F)cc12 [Example 66, 6-chloro-3-(4-chloro-2-fluorobenzyloxy)-2-fluoro-N-(3-methoxy-1H-pyrazolo[3,4-b]pyridin-5-yl)benzamide]	< 1000 nM
COc1n[nH]c2ncc(NC(=O)c3c(Cl)ccc(OCc4ccc(Cl)cn4)c3F)cc12 [Example 45, 6-chloro-3-((5-chloropyridin-2-yl)methoxy)-2-fluoro-N-(3-methoxy-1H-pyrazolo[3,4-b]pyridin-5-yl)benzamide]	< 1000 nM
COc1n[nH]c2ncc(NC(=O)c3c(Cl)ccc(OCc4ccccc4)c3F)cc12 [Example 4, 3-(benzyloxy)-6-chloro-2-fluoro-N-(3-methoxy-1H-pyrazolo[3,4-b]pyridin-5-yl)benzamide]	< 1000 nM
COc1n[nH]c2ncc(NC(=O)c3c(Cl)ccc(OCc4ccc(C)cn4)c3F)cc12 [Example 44, 6-chloro-2-fluoro-N-(3-methoxy-1H-pyrazolo[3,4-b]pyridin-5-yl)-3-((5-methylpyridin-2-yl)methoxy)benzamide]	< 1000 nM
COc1n[nH]c2ncc(NC(=O)c3c(Cl)ccc(OCc4ccc5c(c4)CCO5)c3F)cc12 [Example 65]	< 1000 nM
COc1n[nH]c2ncc(NC(=O)c3c(Cl)ccc(OCc4ccc5c(c4)OCO5)c3F)cc12 [Example 63, 3-(benzo[d][1,3]dioxol-5-ylmethoxy)-6-chloro-2-fluoro-N-(3-methoxy-1H-pyrazolo[3,4-b]pyridin-5-yl)benzamide]	< 1000 nM
COc1ccc(COc2ccc(Cl)c(C(=O)Nc3cnc4[nH]nc(OC)c4c3)c2F)cc1 [Example 56, 6-chloro-2-fluoro-N-(3-methoxy-1H-pyrazolo[3,4-b]pyridin-5-yl)-3-(4-methoxy-benzyloxy)benzamide]	< 1000 nM
COc1n[nH]c2ncc(NC(=O)c3c(Cl)ccc(OCc4cncnc4)c3F)cc12 [Example 68, 6-chloro-2-fluoro-N-(3-methoxy-1H-pyrazolo[3,4-b]pyridin-5-yl)-3-(pyrimidin-5-ylmethoxy)benzamide]	< 1000 nM
